Measurements taken from PubChem BioAssay AID330 (DTP/NCI, 2004).
The list shows only some results of the screen, not a fair sample: it is rich in T/C values a quarter to a half above the control, in often repeated tests (any T/C) and in doses without a T/C. Other doses and runs of a compound stand elsewhere. T/C: endpoint of the treated group in % of that of the vehicle group. Some doses have a count of surviving animals in place of a T/C: the source files T/C as zero there, which appears to mark a toxic dose or a test without result, not a measured value. Some doses without a T/C left all or most animals alive at the check, yet need not have been tolerated: the source hardly ever lists a survival T/C far under the control, and the zero likely stands for such cases as well. Counts of survivors are from the toxicity check (mostly the fifth day) where no day follows; animals may have died later. Schedule codes are those of the source, read here as Q, the interval in days (D) or hours (H), X, the number of doses. Some entries were tested several times; the results are listed from low to high. Brackets with × count equal records among those shown. Where survival is the endpoint, this PubChem deposit counts one and a half times the control or more as active, and values a quarter to a half above the control carry no call in these data; other NCI protocols may use other cut-offs. Some T/C values are followed by the survivors on the day toxicity was checked, most often the fifth; without a count, all were alive then.

Tested on: P388 leukemia ip, CD2F1 mice, survival T/C
Test: NCI In Vivo Anticancer Drug Screen. Data for tumor model P388 Leukemia (intraperitoneal) in CD2F1 (CDF1) mice
Conditions: T/C endpoint: median survival time, vehicle: Klucel (hydroxypropylcellulose) (HPC), higher T/C = longer survival
[1] = dose: 50.0 mg/kg/injection, schedule: Q01DX009 (ip)
[2] = dose: 50.0 mg/kg/injection, schedule: Q04DX002 (ip)
[3] = dose: 100.0 mg/kg/injection, schedule: Q01DX009 (ip)
[4] = dose: 100.0 mg/kg/injection, schedule: Q04DX002 (ip)
[5] = dose: 200.0 mg/kg/injection, schedule: Q01DX009 (ip)
[6] = dose: 400.0 mg/kg/injection, schedule: Q01DX005 (ip)
[7] = dose: 400.0 mg/kg/injection, schedule: Q01DX009 (ip)
[8] = dose: 400.0 mg/kg/injection, schedule: Q04DX002 (ip)

O=C1CN=C(c2ccc[nH]2)c2cc(Cl)ccc2N1
T/C (dose: 50.0 mg/kg/injection, schedule: Q01DX001 (ip), evaluated on day 30): 90, 92, 93, 96, 97 (2×), 98 (2×), 99, 100, 101 (3×), 102 (2×), 103 (4×), 104, 105 (2×), 107, 108, 110, 111 % of control (3×)
T/C (dose: 50.0 mg/kg/injection, schedule: Q01DX001 (ip), evaluated on day 35): 104 % of control
survivor count (dose: 50.0 mg/kg/injection, schedule: Q01DX001 (ip)): 3 of 3 and 6 of 6
T/C (dose: 50.0 mg/kg/injection, schedule: Q01DX005 (ip), evaluated on day 30): 89, 91, 98, 99 (2×), 100 (2×), 101 (2×), 102 (5×), 103 (3×), 104, 105, 106, 109, 110 (2×), 111, 112 (2×), 113, 115 (2×), 116 (2×), 117, 126 % of control
T/C (dose: 50.0 mg/kg/injection, schedule: Q01DX005 (ip), evaluated on day 35): 118 % of control
survivor count (dose: 50.0 mg/kg/injection, schedule: Q01DX005 (ip)): 6 of 6
T/C [1]: 90 (2×), 92, 93, 99, 102 (2×), 103, 104 (2×), 105 (5×), 106 (3×), 108 (2×), 109 (2×), 110, 113 (3×), 114, 115, 118 (2×), 123, 133, 140, 144 % of control
survivor count [1]: 6 of 6
T/C [2]: 86 (2×), 90, 94, 96, 97 (4×), 98, 99 (2×), 100 (4×), 101 (4×), 102 (2×), 103, 105 (3×), 106, 107, 109 (2×), 111 (3×), 116 % of control
survivor count [2]: 3 of 3
T/C (dose: 50.0 mg/kg/injection, schedule: Q04DX003 (ip), evaluated on day 30): 87 (2×), 92, 94, 99, 100 (4×), 101 (2×), 102 (4×), 103 (4×), 105 (2×), 105 [5 of 6 alive], 106, 107 (2×), 108 (2×), 109, 111, 114, 116, 119, 120, 121 % of control
T/C (dose: 50.0 mg/kg/injection, schedule: Q04DX003 (ip), evaluated on day 35): 107 % of control
survivor count (dose: 50.0 mg/kg/injection, schedule: Q04DX003 (ip)): 6 of 6
T/C (dose: 100.0 mg/kg/injection, schedule: Q01DX001 (ip), evaluated on day 30): 90, 97 (2×), 98, 99, 99 [5 of 6 alive], 100 (2×), 101, 102, 103 [5 of 6 alive], 104, 105 (2×), 106 (4×), 108, 109, 110, 111 (4×), 113, 117, 120 % of control
T/C (dose: 100.0 mg/kg/injection, schedule: Q01DX001 (ip), evaluated on day 35): 102 % of control
survivor count (dose: 100.0 mg/kg/injection, schedule: Q01DX001 (ip)): 3 of 3 and 6 of 6
T/C (dose: 100.0 mg/kg/injection, schedule: Q01DX005 (ip), evaluated on day 30): 87, 88, 98, 100, 103, 104 (3×), 106 (2×), 107 (3×), 107 [5 of 6 alive], 109 (2×), 111, 112 (2×), 114, 117 (3×), 118, 120, 124 (2×), 132, 134, 140 % of control
T/C (dose: 100.0 mg/kg/injection, schedule: Q01DX005 (ip), evaluated on day 35): 117 % of control
survivor count (dose: 100.0 mg/kg/injection, schedule: Q01DX005 (ip)): 1 of 3, 3 of 3, 6 of 6
T/C [3]: 87, 88, 90, 99, 100 (2×), 101, 102, 103, 105 (2×), 106, 107, 108, 110, 111 (2×), 112, 114 (2×), 115 (2×), 117, 118, 123, 126 (2×), 131, 135 (2×), 138, 143, 144 % of control
survivor count [3]: 3 of 3 and 6 of 6 (2×)
T/C [4]: 91, 93, 94 (2×), 97, 99 (2×), 100 (3×), 101, 102, 103 (2×), 104 (3×), 105, 106 (2×), 107, 107 [5 of 6 alive], 108 (3×), 109 (3×), 111, 113, 114 (2×), 118, 119 % of control
survivor count [4]: 6 of 6
T/C (dose: 100.0 mg/kg/injection, schedule: Q04DX003 (ip), evaluated on day 30): 87, 90, 94, 95, 100 (2×), 101 (4×), 102 (3×), 103, 105 (4×), 107 (4×), 108 (3×), 110 (3×), 111, 112 (2×), 114 (2×), 117 % of control
T/C (dose: 100.0 mg/kg/injection, schedule: Q04DX003 (ip), evaluated on day 35): 108 % of control
survivor count (dose: 100.0 mg/kg/injection, schedule: Q04DX003 (ip)): 5 of 6
T/C (dose: 200.0 mg/kg/injection, schedule: Q01DX001 (ip), evaluated on day 30): 90, 96 [5 of 6 alive], 97, 100 (2×), 101 (2×), 104 (2×), 105, 106 (2×), 108, 109 [2 of 3 alive], 110 (3×), 111 (3×), 112, 113, 115, 116, 118, 121 % of control (3×)
T/C (dose: 200.0 mg/kg/injection, schedule: Q01DX001 (ip), evaluated on day 35): 106 % of control
survivor count (dose: 200.0 mg/kg/injection, schedule: Q01DX001 (ip)): 3 of 3 and 6 of 6
T/C (dose: 200.0 mg/kg/injection, schedule: Q01DX005 (ip), evaluated on day 30): 91, 94, 95, 97, 100, 101, 103, 105, 107 [5 of 6 alive], 109 (2×), 115 (2×), 117 (2×), 122 [2 of 3 alive], 123 [5 of 6 alive], 125, 126 (2×), 132, 141, 148, 150 % of control
T/C (dose: 200.0 mg/kg/injection, schedule: Q01DX005 (ip), evaluated on day 35): 111 % of control
survivor count (dose: 200.0 mg/kg/injection, schedule: Q01DX005 (ip)): 0 of 3, 0 of 6, 1 of 6, 1 of 3, 2 of 3, 4 of 6, 3 of 3, 6 of 6
T/C [5]: 87 (2×), 89, 90, 91, 92, 92 [2 of 3 alive], 94, 97, 98, 100, 101, 102, 106, 107 (2×), 115, 116 (3×), 120 (2×), 121, 123 [5 of 6 alive], 125, 126, 131, 148, 153 % of control
survivor count [5]: 1 of 3, 2 of 6, 2 of 3, 4 of 6, 6 of 6 (2×)
T/C (dose: 200.0 mg/kg/injection, schedule: Q04DX002 (ip)): 86, 89 (2×), 96, 98 (2×), 98 [5 of 6 alive], 100 (2×), 101, 102 (3×), 105 [2 of 3 alive], 106 (2×), 106 [2 of 3 alive], 107 (2×), 109 (4×), 109 [4 of 6 alive], 110 (2×), 111, 112, 112 [2 of 3 alive], 113, 115, 119, 120, 123, 127 % of control
T/C (dose: 200.0 mg/kg/injection, schedule: Q04DX003 (ip), evaluated on day 30): 86 [5 of 6 alive], 88, 91, 94 [5 of 6 alive], 95 (2×), 100 (5×), 100 [2 of 3 alive], 101, 102 (2×), 103, 105 (2×), 106, 108, 111 (4×), 112, 113 (2×), 116 (3×), 120, 121, 122 % of control
T/C (dose: 200.0 mg/kg/injection, schedule: Q04DX003 (ip), evaluated on day 35): 117 % of control
survivor count (dose: 200.0 mg/kg/injection, schedule: Q04DX003 (ip)): 3 of 3 and 6 of 6
T/C (dose: 400.0 mg/kg/injection, schedule: Q01DX001 (ip), evaluated on day 30): 94, 99, 99 [2 of 3 alive], 100, 101, 105 (3×), 106 [5 of 6 alive], 107, 111, 116 [4 of 6 alive], 118, 118 [4 of 6 alive], 120 [2 of 3 alive] (2×), 121 (3×), 122 (2×), 147 % of control [2 of 3 alive]
T/C (dose: 400.0 mg/kg/injection, schedule: Q01DX001 (ip), evaluated on day 35): 119 % of control [4 of 6 alive]
survivor count (dose: 400.0 mg/kg/injection, schedule: Q01DX001 (ip)): 0 of 6, 1 of 6, 1 of 3, 3 of 6, 3 of 3, 6 of 6
T/C [6]: 90, 101, 102, 104 [5 of 6 alive], 106, 110, 114 [4 of 6 alive], 116, 134 % of control
survivor count [6]: 0 of 3, 0 of 6, 1 of 6, 1 of 3, 2 of 6, 3 of 6, 2 of 3, 4 of 6, 5 of 6 (2×), 3 of 3, 6 of 6
T/C [7]: 86, 87, 90, 98 [2 of 3 alive], 106, 111 [2 of 3 alive], 113 (2×), 113 [4 of 6 alive], 120, 127, 128, 129 % of control
survivor count [7]: 0 of 3, 0 of 6, 2 of 6, 3 of 6, 2 of 3, 4 of 6 (2×), 3 of 3
T/C [8]: 89 [2 of 3 alive], 90 [5 of 6 alive], 92 [2 of 3 alive], 96, 97 [5 of 6 alive], 100 (2×), 101, 102, 103, 105 (2×), 106, 107 (3×), 109 [2 of 3 alive], 110, 114 [2 of 3 alive], 122 [4 of 6 alive], 125 [2 of 3 alive], 131 % of control
survivor count [8]: 0 of 3, 0 of 6, 1 of 6, 1 of 3, 2 of 6, 3 of 6, 2 of 3, 4 of 6, 5 of 6
T/C (dose: 400.0 mg/kg/injection, schedule: Q04DX003 (ip), evaluated on day 30): 89 [5 of 6 alive], 92 [5 of 6 alive], 98, 99, 103 [2 of 3 alive], 106, 107, 110, 110 [5 of 6 alive], 111 (2×), 112, 117, 120, 120 [4 of 6 alive], 121 (2×), 122 [5 of 6 alive], 135 [2 of 3 alive], 142 % of control
T/C (dose: 400.0 mg/kg/injection, schedule: Q04DX003 (ip), evaluated on day 35): 117 % of control
survivor count (dose: 400.0 mg/kg/injection, schedule: Q04DX003 (ip)): 0 of 3, 1 of 6, 1 of 3, 2 of 6, 1 of 2, 3 of 6, 2 of 3, 4 of 6, 3 of 3, 6 of 6
